Measured values reported in publication PMC9266971.
Results are given in words; binding and its absence hold for the method and conditions named. Binding seen in cells or lysates may run through a third protein. Some binding calls cover weakened binding; strength is not graded here.

Protein sequences, listed by entry. Tags and fused reporters are not part of them. Lines headed by an entry give the natural chain unless they say otherwise; changes in a name come on top. Chains listed by the source or under a name are the forms on record and can include a tag or linker.
UniProt P26678: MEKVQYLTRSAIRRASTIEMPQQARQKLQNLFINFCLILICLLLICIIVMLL
GFP-PLN-R14del (P26678, form named): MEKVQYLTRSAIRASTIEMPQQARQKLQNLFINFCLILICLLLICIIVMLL
Sarcoplasmic reticulum calcium ATPase (SERCA2a), mouse heart (O55143-2, form named): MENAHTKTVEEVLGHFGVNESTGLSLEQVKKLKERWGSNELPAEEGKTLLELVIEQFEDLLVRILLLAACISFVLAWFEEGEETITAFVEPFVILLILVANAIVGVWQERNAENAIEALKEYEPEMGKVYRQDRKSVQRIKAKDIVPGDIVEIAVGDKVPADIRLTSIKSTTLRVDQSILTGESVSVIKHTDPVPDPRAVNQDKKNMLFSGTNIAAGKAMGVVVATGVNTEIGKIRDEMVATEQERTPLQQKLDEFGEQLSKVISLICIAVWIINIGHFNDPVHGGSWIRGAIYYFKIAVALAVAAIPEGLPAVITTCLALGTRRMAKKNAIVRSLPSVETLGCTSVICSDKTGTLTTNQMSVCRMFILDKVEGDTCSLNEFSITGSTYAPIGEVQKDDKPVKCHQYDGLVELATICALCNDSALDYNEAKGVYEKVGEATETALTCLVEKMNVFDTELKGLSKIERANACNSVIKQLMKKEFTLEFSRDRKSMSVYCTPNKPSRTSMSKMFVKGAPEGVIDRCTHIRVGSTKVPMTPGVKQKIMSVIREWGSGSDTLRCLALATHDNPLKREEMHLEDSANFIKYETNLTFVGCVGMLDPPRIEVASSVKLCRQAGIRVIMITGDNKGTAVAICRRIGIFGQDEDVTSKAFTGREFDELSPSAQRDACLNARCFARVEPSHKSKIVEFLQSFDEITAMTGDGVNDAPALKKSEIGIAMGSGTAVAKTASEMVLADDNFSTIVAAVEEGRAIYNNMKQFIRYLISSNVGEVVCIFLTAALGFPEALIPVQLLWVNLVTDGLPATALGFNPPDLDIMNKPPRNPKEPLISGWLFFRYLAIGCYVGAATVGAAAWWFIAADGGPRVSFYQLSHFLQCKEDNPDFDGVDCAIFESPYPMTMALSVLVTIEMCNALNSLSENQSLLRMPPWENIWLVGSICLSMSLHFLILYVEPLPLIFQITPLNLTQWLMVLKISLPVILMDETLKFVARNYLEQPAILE
UniProt O35387: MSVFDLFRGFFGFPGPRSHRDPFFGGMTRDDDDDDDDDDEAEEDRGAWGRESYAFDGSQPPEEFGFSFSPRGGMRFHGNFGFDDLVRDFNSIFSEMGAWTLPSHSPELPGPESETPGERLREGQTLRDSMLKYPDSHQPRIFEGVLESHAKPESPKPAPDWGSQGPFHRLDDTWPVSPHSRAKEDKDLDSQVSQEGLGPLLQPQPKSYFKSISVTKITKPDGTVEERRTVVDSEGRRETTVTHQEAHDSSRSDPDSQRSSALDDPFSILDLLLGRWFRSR
SERCA2a expressed from a plasmid in HEK 293 cells (P16615-2, form named): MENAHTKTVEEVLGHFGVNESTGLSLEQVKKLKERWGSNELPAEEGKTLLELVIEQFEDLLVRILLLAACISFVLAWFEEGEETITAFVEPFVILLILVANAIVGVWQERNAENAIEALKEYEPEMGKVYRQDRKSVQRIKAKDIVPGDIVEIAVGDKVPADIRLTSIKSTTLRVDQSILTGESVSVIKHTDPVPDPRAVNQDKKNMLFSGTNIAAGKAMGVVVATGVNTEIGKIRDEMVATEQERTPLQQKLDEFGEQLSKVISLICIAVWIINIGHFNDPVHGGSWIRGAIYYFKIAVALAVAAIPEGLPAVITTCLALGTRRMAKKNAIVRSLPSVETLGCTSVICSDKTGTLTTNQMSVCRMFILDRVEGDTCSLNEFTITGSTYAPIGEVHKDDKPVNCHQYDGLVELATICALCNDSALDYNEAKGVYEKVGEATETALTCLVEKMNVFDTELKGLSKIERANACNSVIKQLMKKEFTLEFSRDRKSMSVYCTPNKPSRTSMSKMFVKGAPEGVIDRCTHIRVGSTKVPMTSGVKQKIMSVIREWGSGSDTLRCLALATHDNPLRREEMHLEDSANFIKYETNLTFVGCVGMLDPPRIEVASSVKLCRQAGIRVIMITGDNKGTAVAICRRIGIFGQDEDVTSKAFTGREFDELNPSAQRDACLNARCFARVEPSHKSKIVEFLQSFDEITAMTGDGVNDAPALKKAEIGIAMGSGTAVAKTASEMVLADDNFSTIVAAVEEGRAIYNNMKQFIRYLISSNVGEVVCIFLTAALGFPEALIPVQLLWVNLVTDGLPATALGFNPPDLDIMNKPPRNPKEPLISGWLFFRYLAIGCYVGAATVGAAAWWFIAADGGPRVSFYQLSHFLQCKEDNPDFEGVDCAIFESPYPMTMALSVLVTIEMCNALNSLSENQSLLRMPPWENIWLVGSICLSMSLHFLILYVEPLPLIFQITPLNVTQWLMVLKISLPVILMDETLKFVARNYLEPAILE

Key:
[1] = target: GST-PLN-R14del recombinant protein (UniProt P26678); test: pull-down; equivalent amounts of GST-PLN-WT or GST-PLN-R14del on glutathione beads mixed with 0.5 mg wild-type mouse cardiac homogenate (10 mM NaPO4 pH 7.2, 2 mM EDTA, 10 mM NaN3, 120 mM NaCl, 1% NP-40), 4 °C, 16 h; Western blot; for Figure 3c the GST proteins were first treated with PKA; only the target purified
[2] = target: GST-PLN-WT recombinant protein (UniProt P26678); test: as above
[3] = target: GST-PLN-WT recombinant protein phosphorylated in vitro by PKA (UniProt P26678); test: as above
GFP-PLN-R14del = GFP-PLN-R14del (UniProt P26678); test: co-IP; GFP antibody and protein-A/G agarose on lysates (50 mM Tris HCl, 150 mM NaCl, 1% NP40) of HEK 293 cells co-transfected with GFP-PLN and SERCA2a, with or without 10 μM isoproterenol for 30 min at 37 °C; Western blot for SERCA2
GFP-PLN-WT = GFP-PLN-WT (UniProt P26678); test: as above

Substance	binding [1]	binding [2]	binding [3]	binding (GFP-PLN-R14del)	binding (GFP-PLN-WT)
Sarcoplasmic reticulum calcium ATPase (SERCA2a), mouse heart (from UniProt O55143-2 1-998)	binds	binds	binds		
HS-1-associated protein X-1 (HAX-1), mouse heart (from UniProt O35387 1-280)	binds	binds			
SERCA2a expressed from a plasmid in HEK 293 cells (from UniProt P16615-2 1-997)				binds	binds
